{
  "source": "paper PMC10796436",
  "about": "“Peptidyl nitroalkene inhibitors of main protease rationalized by computational and crystallographic investigations as antivirals against SARS-CoV-2” (Communications Chemistry, 2024)",
  "biological_target": "M^pro (Severe acute respiratory syndrome coronavirus 2, UniProt P0DTD1)",
  "format": "biochemical",
  "details": "triplicate wells",
  "experimental": "Buffer: 20 mM Tris, 0.1 mM EDTA, 1 mM DTT, 200 mM NaCl pH = 7.5. For the dilution assay Nirmatrelvir[21] was used as a reversible control and LM188[54] as an irreversible control (Fig. 10).\nThe incubation was done at RT for 30 min in assay buffer. DMSO was used as a control. After incubation the Enzyme/Inhibitor (or DMSO) mixtures were diluted 100-fold in assay buffer.\nThe preincubation was done in assay buffer (20 mM Tris, 0.1 mM EDTA, 1 mM DTT, 200 mM NaCl, pH = 7.5), at RT for 30 min. After incubation the mixtures were diluted […]\nproteolytic activity of the enzyme was measured as described for the enzymatic assays using the […]\nactivity was measured over 1 h.\nInhibition assay58. Trypsin: Enzyme: bovine trypsin purchased from Sigma-Aldrich (St. Louis, […]\nSubstrate: Cbz-FR-AMC purchased from Bachem (Bubendorf, Switzerland), [Substrate]: 40 µM […]\nThe activity against bovine trypsin was tested at 20 µM inhibitor concentration. […]",
  "note": "Several values for one entry are separate records, joined by “and”; a condition that tells them apart may be missing. Equal entries are not always repeated. Where two headings read alike, the source gives them in different places. This continues a long series; more values of the same kind are listed elsewhere.",
  "data": [
    {"smiles": "COc1cccc2[nH]c(C(=O)N[C@@H](CC(C)C)C(=O)N[C@H](/C=C/[N+](=O)[O-])C[C@@H]3CCNC3=O)cc12", "note": "[FGA146]", "values": [
      {"measurement": "Fluorescence reading (progress curve)", "setting": "Time 0 s", "result": "403 and 389 and 374"},
      {"measurement": "Fluorescence reading (progress curve)", "setting": "Time 30.009 s", "result": "457 and 435 and 430"},
      {"measurement": "Fluorescence reading (progress curve)", "setting": "Time 60.029 s", "result": "510 and 490 and 481"},
      {"measurement": "Fluorescence reading (progress curve)", "setting": "Time 90.04 s", "result": "564 and 538 and 539"},
      {"measurement": "Fluorescence reading (progress curve)", "setting": "Time 120.057 s", "result": "606 and 585 and 592"},
      {"measurement": "Fluorescence reading (progress curve)", "setting": "Time 150.063 s", "result": "653 and 636 and 638"},
      {"measurement": "Fluorescence reading (progress curve)", "setting": "Time 450.157 s", "result": 1064},
      {"measurement": "Fluorescence reading (progress curve)", "setting": "Time 480.18 s", "result": "1100 and 1072 and 1106"},
      {"measurement": "Fluorescence reading (progress curve)", "setting": "Time 510.193 s", "result": "1118 and 1109 and 1137"},
      {"measurement": "Fluorescence reading (progress curve)", "setting": "Time 540.2 s", "result": "1159 and 1147 and 1167"},
      {"measurement": "Fluorescence reading (progress curve)", "setting": "Time 570.216 s", "result": "1196 and 1182 and 1210"},
      {"measurement": "Fluorescence reading (progress curve)", "setting": "Time 600.232 s", "result": "1223 and 1212 and 1242"},
      {"measurement": "Fluorescence reading (progress curve)", "setting": "Time 630.25 s", "result": "1265 and 1239 and 1272"},
      {"measurement": "Fluorescence reading (progress curve)", "setting": "Time 660.257 s", "result": "1281 and 1256 and 1292"},
      {"measurement": "Fluorescence reading (progress curve)", "setting": "Time 690.266 s", "result": "1325 and 1296 and 1338"},
      {"measurement": "Fluorescence reading (progress curve)", "setting": "Time 720.275 s", "result": "1346 and 1316 and 1367"},
      {"measurement": "Fluorescence reading (progress curve)", "setting": "Time 750.289 s", "result": "1368 and 1337 and 1362"},
      {"measurement": "Fluorescence reading (progress curve)", "setting": "Time 780.305 s", "result": "1396 and 1380 and 1375"},
      {"measurement": "Fluorescence reading (progress curve)", "setting": "Time 810.312 s", "result": "1422 and 1407 and 1440"},
      {"measurement": "Fluorescence reading (progress curve)", "setting": "Time 840.326 s", "result": "1451 and 1433 and 1470"},
      {"measurement": "Fluorescence reading (progress curve)", "setting": "Time 870.344 s", "result": "1477 and 1461 and 1505"},
      {"measurement": "Fluorescence reading (progress curve)", "setting": "Time 900.356 s", "result": "1517 and 1497"},
      {"measurement": "Fluorescence reading (progress curve)", "setting": "Time 930.361 s", "result": "1519 and 1483 and 1542"},
      {"measurement": "Fluorescence reading (progress curve)", "setting": "Time 960.372 s", "result": "1564 and 1523 and 1570"},
      {"measurement": "Fluorescence reading (progress curve)", "setting": "Time 990.388 s", "result": "1560 and 1546 and 1589"},
      {"measurement": "Fluorescence reading (progress curve)", "setting": "Time 1020.4 s", "result": "1594 and 1565 and 1602"},
      {"measurement": "Fluorescence reading (progress curve)", "setting": "Time 1050.42 s", "result": "1606 and 1584 and 1630"},
      {"measurement": "Fluorescence reading (progress curve)", "setting": "Time 1080.42 s", "result": "1634 and 1615 and 1661"},
      {"measurement": "Fluorescence reading (progress curve)", "setting": "Time 1110.44 s", "result": "1657 and 1611 and 1659"},
      {"measurement": "Fluorescence reading (progress curve)", "setting": "Time 1140.45 s", "result": "1677 and 1642 and 1683"},
      {"measurement": "Fluorescence reading (progress curve)", "setting": "Time 1170.46 s", "result": "1671 and 1670 and 1709"},
      {"measurement": "Fluorescence reading (progress curve)", "setting": "Time 1200.47 s", "result": "1707 and 1671 and 1721"},
      {"measurement": "Fluorescence reading (progress curve)", "setting": "Time 1230.49 s", "result": "1725 and 1711 and 1741"},
      {"measurement": "Fluorescence reading (progress curve)", "setting": "Time 1260.5 s", "result": "1745 and 1713 and 1747"},
      {"measurement": "Fluorescence reading (progress curve)", "setting": "Time 1290.52 s", "result": "1765 and 1743 and 1791"},
      {"measurement": "Fluorescence reading (progress curve)", "setting": "Time 1320.53 s", "result": "1802 and 1764 and 1773"},
      {"measurement": "Fluorescence reading (progress curve)", "setting": "Time 1350.55 s", "result": "1786 and 1749 and 1798"},
      {"measurement": "Fluorescence reading (progress curve)", "setting": "Time 1380.55 s", "result": "1796 and 1788 and 1805"},
      {"measurement": "Fluorescence reading (progress curve)", "setting": "Time 1410.56 s", "result": "1827 and 1815 and 1833"},
      {"measurement": "Fluorescence reading (progress curve)", "setting": "Time 1440.57 s", "result": "1849 and 1797 and 1847"},
      {"measurement": "Fluorescence reading (progress curve)", "setting": "Time 1470.58 s", "result": "1864 and 1834 and 1868"},
      {"measurement": "Fluorescence reading (progress curve)", "setting": "Time 1500.6 s", "result": "1881 and 1837 and 1879"},
      {"measurement": "Fluorescence reading (progress curve)", "setting": "Time 1530.61 s", "result": "1875 and 1865 and 1881"},
      {"measurement": "Fluorescence reading (progress curve)", "setting": "Time 1560.62 s", "result": "1906 and 1871 and 1894"},
      {"measurement": "Fluorescence reading (progress curve)", "setting": "Time 1590.64 s", "result": "1895 and 1888 and 1914"},
      {"measurement": "Fluorescence reading (progress curve)", "setting": "Time 1620.64 s", "result": "1933 and 1889 and 1908"},
      {"measurement": "Fluorescence reading (progress curve)", "setting": "Time 1650.65 s", "result": "1922 and 1912 and 1926"},
      {"measurement": "Fluorescence reading (progress curve)", "setting": "Time 1680.66 s", "result": "1949 and 1903 and 1947"},
      {"measurement": "Fluorescence reading (progress curve)", "setting": "Time 1710.68 s", "result": "1960 and 1934 and 1965"},
      {"measurement": "Fluorescence reading (progress curve)", "setting": "Time 1740.69 s", "result": "1983 and 1937 and 1986"},
      {"measurement": "Fluorescence reading (progress curve)", "setting": "Time 1770.7 s", "result": "1982 and 1940 and 1970"},
      {"measurement": "Fluorescence reading (progress curve)", "setting": "Time 1800.72 s", "result": "1994 and 1959 and 1985"},
      {"measurement": "Fluorescence reading (progress curve)", "setting": "Time 1830.73 s", "result": "2001 and 1976 and 2008"},
      {"measurement": "Fluorescence reading (progress curve)", "setting": "Time 1860.74 s", "result": "2007 and 1986 and 2024"},
      {"measurement": "Fluorescence reading (progress curve)", "setting": "Time 1890.75 s", "result": "2049 and 1997 and 2028"},
      {"measurement": "Fluorescence reading (progress curve)", "setting": "Time 1920.77 s", "result": "2040 and 1994 and 2034"},
      {"measurement": "Fluorescence reading (progress curve)", "setting": "Time 1950.78 s", "result": "2048 and 2016 and 2056"},
      {"measurement": "Fluorescence reading (progress curve)", "setting": "Time 1980.8 s", "result": "2051 and 2022 and 2053"},
      {"measurement": "Fluorescence reading (progress curve)", "setting": "Time 2010.81 s", "result": "2066 and 2022 and 2048"},
      {"measurement": "Fluorescence reading (progress curve)", "setting": "Time 2040.83 s", "result": "2074 and 2062 and 2086"},
      {"measurement": "Fluorescence reading (progress curve)", "setting": "Time 2070.84 s", "result": "2085 and 2041 and 2079"},
      {"measurement": "Fluorescence reading (progress curve)", "setting": "Time 2100.86 s", "result": "2075 and 2048 and 2095"},
      {"measurement": "Fluorescence reading (progress curve)", "setting": "Time 2130.86 s", "result": "2091 and 2062 and 2088"},
      {"measurement": "Fluorescence reading (progress curve)", "setting": "Time 2160.87 s", "result": "2124 and 2056 and 2084"},
      {"measurement": "Fluorescence reading (progress curve)", "setting": "Time 2190.89 s", "result": "2114 and 2066 and 2109"},
      {"measurement": "Fluorescence reading (progress curve)", "setting": "Time 2220.91 s", "result": "2098 and 2080 and 2128"},
      {"measurement": "Fluorescence reading (progress curve)", "setting": "Time 2250.92 s", "result": "2121 and 2085 and 2110"},
      {"measurement": "Fluorescence reading (progress curve)", "setting": "Time 2280.93 s", "result": "2135 and 2096 and 2133"},
      {"measurement": "Fluorescence reading (progress curve)", "setting": "Time 2310.95 s", "result": "2143 and 2083 and 2120"},
      {"measurement": "Fluorescence reading (progress curve)", "setting": "Time 2340.96 s", "result": "2146 and 2105 and 2123"},
      {"measurement": "Fluorescence reading (progress curve)", "setting": "Time 2370.96 s", "result": "2133 and 2103 and 2134"},
      {"measurement": "Fluorescence reading (progress curve)", "setting": "Time 2400.97 s", "result": "2150 and 2113 and 2148"},
      {"measurement": "Fluorescence reading (progress curve)", "setting": "Time 2430.99 s", "result": "2167 and 2117 and 2150"},
      {"measurement": "Fluorescence reading (progress curve)", "setting": "Time 2461.01 s", "result": "2153 and 2116 and 2151"},
      {"measurement": "Fluorescence reading (progress curve)", "setting": "Time 2491.03 s", "result": "2142 and 2107 and 2175"},
      {"measurement": "Fluorescence reading (progress curve)", "setting": "Time 2521.03 s", "result": "2167 and 2132 and 2159"},
      {"measurement": "Fluorescence reading (progress curve)", "setting": "Time 2551.05 s", "result": "2160 and 2135 and 2181"},
      {"measurement": "Fluorescence reading (progress curve)", "setting": "Time 2581.07 s", "result": "2186 and 2125 and 2187"},
      {"measurement": "Fluorescence reading (progress curve)", "setting": "Time 2611.08 s", "result": "2182 and 2135 and 2175"},
      {"measurement": "Fluorescence reading (progress curve)", "setting": "Time 2641.09 s", "result": "2197 and 2140 and 2157"},
      {"measurement": "Fluorescence reading (progress curve)", "setting": "Time 2671.11 s", "result": "2201 and 2144 and 2187"},
      {"measurement": "Fluorescence reading (progress curve)", "setting": "Time 2701.12 s", "result": "2191 and 2170 and 2184"},
      {"measurement": "Fluorescence reading (progress curve)", "setting": "Time 2731.13 s", "result": "2200 and 2147 and 2181"},
      {"measurement": "Fluorescence reading (progress curve)", "setting": "Time 2761.14 s", "result": "2199 and 2150 and 2195"},
      {"measurement": "Fluorescence reading (progress curve)", "setting": "Time 2791.15 s", "result": "2196 and 2168 and 2215"},
      {"measurement": "Fluorescence reading (progress curve)", "setting": "Time 2821.16 s", "result": "2189 and 2169 and 2202"},
      {"measurement": "Fluorescence reading (progress curve)", "setting": "Time 2851.18 s", "result": "2221 and 2170 and 2178"}
    ]}
  ]
}
